Values quoted from earlier work in patent publication US20060281715A1, “Phosphates of secondary alcohols” (priority 2003, published 2006).

Settings: after administration

time to maximal plasma concentrations: approximately 2 hours
SMILES: CC(C)c1c(C(=O)Nc2ccccc2)c(-c2ccccc2)c(-c2ccc(F)cc2)n1CC[C@@H](O)C[C@@H](O)CC(=O)O [atorvastatin]
